Source: PubChem BioAssay AID1296 (Columbia University Molecular Screening Center, 2008)
Out of some 130,000 compounds screened, about 1,000 (0.77%) were called active. The inconclusive results got no clear call from the source; some entries with a clear call stand among them for comparison.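 How the source made its calls: active means activation at 2 µM above a set limit, confirmed on inspection of the cell images; inconclusive means above the set limit but not confirmed on image inspection; inactive means the rest.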

Test: activators of insulin promoter-driven GFP, primary screen, imaging, TRM-6 cells (human fetal islet line), eGFP reporter, cell count (AID 1296;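 further: share of cells whose green reporter signal exceeds an intensity cutoff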)
Conditions: at 2 µM, active compounds read high, plate-scaled: unstimulated 0, stimulated control 100
Method in brief: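 test system = TRM-6 insulin promoter–eGFP reporter cells | benchmarks = stimulated versus unstimulated wells as plate controls | read-out basis = percent cells above green-intensity threshold, converted to percent activation versus plate controls | detection = fixed-cell fluorescence microscopy, eGFP plus Hoechst | incubation = tamoxifen pre-incubation 15 h overnight, then compound exposure 48 h at 37 °C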

Row | SMILES | activation
1 | C=CCn1c(COc2cccc3ccc(C)nc23)nnc1SCC(=O)O | active: 450%
2 | Cc1ccccc1C(=O)c1cccn1CC(=O)NCc1ccc(Cl)cc1 | inconclusive: 173%
3 | S=c1sc(SCCOc2ccccc2)nn1-c1ccccc1 | inconclusive: 233%
4 | COCCn1nnnc1C(c1ccc2ncccc2c1)N1CCc2ccccc21 (configuration not stated) | inconclusive: 133%
5 | COc1ccc(N(C(=O)CCl)C(C(=O)NCCc2ccccc2)c2cccs2)cc1Cl (configuration not stated) | inconclusive: 257% [cytotoxic]
6 | COc1ccccc1CNC(=O)CSc1nnc2c(Cl)cc(C(F)(F)F)cn12 | inactive: -6.45%
7 | COc1ccc(C(=O)NCCc2nnc(SCC(=O)Nc3ccccc3)n2C)cc1 | inconclusive: 92.1%
8 | CCOc1ccc(N2C(=O)CC(N3CCC(NC(=O)Nc4ccccc4)CC3)C2=O)cc1 (configuration not stated) | inconclusive: 445%
9 | Cc1ncc([N+](=O)[O-])n1CCOC(=O)NC(NCc1ccccc1)C(Cl)(Cl)Cl (configuration not stated) | active: 133%
10 | Cc1ccc(N=C/C(C(=O)C(F)(F)F)=C(\O)c2ccco2)cc1Cl | inactive: 2.94%
11 | CCOC(=O)C(C)Oc1ccc(C2NC(=O)NC(C)=C2C(C)=O)cc1Br (configuration not stated) | inconclusive: 510%
12 | CCOc1ccc(NC(=O)C2Cc3ccccc3CN2S(=O)(=O)CC)cc1 (configuration not stated) | inconclusive: 94.1%
13 | CN(C(=O)CSc1nc(-c2ccccc2)cs1)C1CCS(=O)(=O)C1 (configuration not stated) | inconclusive: 577%
14 | COc1ccc(OC)c(NC(=O)CCNS(=O)(=O)c2ccc3c(c2)oc(=O)n3C)c1 | inactive: -7.14%
15 | CNC(=O)[C@@H]1C[C@H]1[C@@H](NC(=O)OCc1ccccc1)c1ccccc1 | active: 255%
16 | COC(=O)C(O)(CC(=O)Nc1ccc(OC)cc1)C(F)(F)F (configuration not stated) | inconclusive: 419%
17 | CCOC(=O)CCc1nc2ccccc2[nH]c1=O | inconclusive: 121%
18 | Cc1nn(Cc2ccc(Cl)cc2Cl)c(C)c1NC(=O)Cn1nc([N+](=O)[O-])c(Cl)c1C | active: 650%
19 | N#CC(C#N)=C1C=C2C=C(N3CCOCC3)CCC2CC1 (configuration not stated) | inconclusive: 733%

Exported with tabs: three of the compounds above
Row	SMILES	activation
14	COc1ccc(OC)c(NC(=O)CCNS(=O)(=O)c2ccc3c(c2)oc(=O)n3C)c1	inactive: -7.14%
15	CNC(=O)[C@@H]1C[C@H]1[C@@H](NC(=O)OCc1ccccc1)c1ccccc1	active: 255%
16	COC(=O)C(O)(CC(=O)Nc1ccc(OC)cc1)C(F)(F)F (configuration not stated)	inconclusive: 419%

Further structures

Row | SMILES | activation
20 | Cc1cc(C(=O)NCCCn2ccnc2)sc1-c1ccccc1 | active: 531%
21 | CCCNS(=O)(=O)c1cccc(C(=O)NC2CCCc3ccccc32)c1 (configuration not stated) | inactive: 4.35%
22 | COc1ccc(S(=O)(=O)N[C@@H](C)C(=O)OCC(=O)Nc2cc3oc4ccccc4c3cc2OC)cc1 | inactive: -1.96%
23 | CCC(C)Nc1nc2c(c(=O)n(C)c(=O)n2C)n1Cc1ccc(F)cc1 (configuration not stated) | inconclusive: 97.3%
24 | CCOc1ccc(-c2cc(C(=O)O)c3ccccc3n2)c(OCC)c1 | inconclusive: 425%
25 | CCn1c(Cc2cccs2)nnc1SCC(=O)c1ccc(C)cc1 | active: 433%
26 | C=CCn1c(O)c(N=NC(=S)Nc2cccc(OC)c2)c2ccccc21 | inconclusive: 267%
27 | CCOc1ccc(C=NC23CN4CN(CN(C4)C2)C3)cc1 | active: 191%
28 | COc1ccc(C(c2nnnn2CS(=O)(=O)c2ccc(C)cc2)N2CCN(Cc3ccccc3)CC2)cc1 (configuration not stated) | inconclusive: 740%
29 | CCOC(=O)C1CCN(C(=O)c2cccc(Cl)c2)CC1 | inconclusive: 408%
30 | Cc1ccc(P(C)(=O)c2ccc(C)cc2)cc1 | inconclusive: 467%
31 | O=C1C=CC(=O)N1CCNc1ncc(C(F)(F)F)cc1Cl | inconclusive: 400% [cytotoxic]
32 | CN(C(=O)c1ccc2c(=O)n3c(nc2c1)CCCCC3)c1ccccc1 | inconclusive: 417%
33 | CSc1nsc(/C=C/Nc2ccc(C)cc2)c1C#N | inconclusive: 221%
34 | CC(=O)Nc1cccc(C(=O)NC(C)c2ccc(S(N)(=O)=O)cc2)c1 (configuration not stated) | inactive: -9.38%
35 | CCSCc1nnc(SCC(=O)Nc2cccc(SC)c2)n1C | active: 425%
36 | CC(=O)C1=C(C)NC(=O)NC1c1ccccc1 (configuration not stated) | inconclusive: 146%
37 | O=C(Cc1ccccc1)N1CCN(C(=O)c2ccco2)CC1 | active: 529%
38 | Cc1ccc(-c2nnn(CC(=O)N(CC(=O)NCC3CCCO3)c3ccccc3)n2)o1 (configuration not stated) | inconclusive: 558%

Row | SMILES | activation
39 | CCCCN(CCCC)S(=O)(=O)c1c(C)[nH]c(=O)[nH]c1=O | inactive: -72.7%
40 | CN(CC(=O)N1CCN(c2ccc(F)cc2)CC1)S(=O)(=O)c1ccc(F)cc1 | active: 78.8%
41 | Cc1ccc(NC(=O)/C(=C\c2ccccc2)NC(=O)/C=C/c2ccccc2)cc1 | inconclusive: 132%
42 | CCOC(=O)c1cc2c(=O)n3cccc(C)c3nc2n(Cc2ccco2)c1=NC(=O)c1cccnc1 | inconclusive: 108%
43 | COc1ccc(NC(=O)/C(Cl)=C(/Cl)S(=O)Cc2ccc(C)cc2)cn1 (configuration not stated) | inconclusive: 317% [cytotoxic]
44 | O=C(CC1NCCNC1=O)Nc1ccc(Oc2ccccc2)cc1 (configuration not stated) | inconclusive: 75.3%
45 | O=C(COC(=O)c1ccc2c(=O)n3c(nc2c1)CCC3)Nc1ccccc1F | inconclusive: 219%
46 | O=C1c2ccccc2NC(c2ccccn2)N1c1ccccc1F (configuration not stated) | inactive: -3.45%
47 | c1ccc(CCc2nn3c(Cn4cnc5ccccc54)nnc3s2)cc1 | inconclusive: 523%
48 | Cc1cc(=O)n2[nH]c(C(=O)O)nc2n1 | active: 76.7%
49 | Cc1cccc(Nc2nc3c(S(=O)(=O)c4ccccc4)nnn3c3ccccc23)c1 | inconclusive: 76%
50 | CCS(=O)(=O)N1N=C(c2cccc(NS(C)(=O)=O)c2)CC1c1ccccc1 (configuration not stated) | inconclusive: 385%
51 | CCn1c(CNC(=O)c2cccc(C)c2)nnc1SCC(=O)Nc1cccc(OC)c1 | inconclusive: 81.6%
52 | CCOC(=O)NC(=O)c1cn(CCN(C)C)c(=O)[nH]c1=O | inactive: 7.14%
53 | CCc1ccc2oc(C(=O)NCc3ccncc3)c(C)c2c1 | inconclusive: 407%
54 | O=C(CSc1nnnn1-c1ccc(F)cc1)c1ccc(O)c(O)c1 | inconclusive: 400%
55 | Cc1cccc(C)c1N1CCN(S(=O)(=O)c2ccc(F)cc2)CC1 | inconclusive: 462%
56 | CC(CC(=O)N1CCN(c2ccccc2F)CC1)c1ccccc1 (configuration not stated) | inconclusive: 364%
57 | CCOC(=O)C1(Cc2cccc(OC)c2)CCN(C(C)CC(C)(C)O)CC1 (configuration not stated) | inconclusive: 275%
